Reference: patent US5714155A, “Ethylenediamine derivative in a cosmetic or dermatological composition, and composition containing in particular a product having an irritant side effect” (Societe L'oreal S.A., priority 1994, dated 1998)
At least one read-out could not be matched to a standard name with certainty.

Test system: human NK1 receptor
Test: Receptor binding to human NK1 receptor (technique of Heuillet et al.)
Details: at a concentration of 10 μM

SMILES	binding [%]
Cc1cc(C)cc(CNCCNCc2cc(C)cc(C)c2)c1 [Example 1, N,N'-bis(3,5-dimethylbenzyl)ethylenediamine]	57
COc1cc(CNCCNCc2cc(OC)cc(OC)c2)cc(OC)c1 [Example 2, N,N'-bis(3,5-dimethoxybenzyl)ethylenediamine]	23
